In this assay the target is T1, BVES-myc (Blood Vessel Epicardial Substance) (human) (UniProt Q8NE79).
T1 sequence: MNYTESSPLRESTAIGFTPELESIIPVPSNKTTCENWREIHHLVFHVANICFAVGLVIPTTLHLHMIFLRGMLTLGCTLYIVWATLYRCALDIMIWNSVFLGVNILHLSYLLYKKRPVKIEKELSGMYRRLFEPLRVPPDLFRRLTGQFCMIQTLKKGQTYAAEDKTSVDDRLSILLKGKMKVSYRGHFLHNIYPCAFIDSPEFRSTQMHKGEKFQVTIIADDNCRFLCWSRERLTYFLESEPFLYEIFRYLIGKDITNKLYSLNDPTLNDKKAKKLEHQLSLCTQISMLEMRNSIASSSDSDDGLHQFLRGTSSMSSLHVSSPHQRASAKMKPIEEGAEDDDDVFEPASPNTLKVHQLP
The experiment in a line: co-IP; mapping with truncation or deletion constructs of ANO5 and BVES; BVES-myc as bait for the ANO5 fragments; transfected cells (cell line not stated); RIPA lysis buffer, 4 °C.

No constants are given. Whether binding was seen depends on the method and setting. In cells and extracts the contact can be indirect. A result given as binding can be weak or reduced; the word gives no strength. Where a sequence is shown, tags or fusion partners need not be part of it.

On to “N terminal fragment of ANO5 (domain or fragment)”, for which the binding entry is “binds”.
